The labels stand for the following.
B1: Ribosomal protein L1 of M. thermautotrophicus (protein, UniProt O27716 1-212)
chain: MQQEIMEAVKKAKELSRPRNFTQSMDVILNIKDLDVNKPENRFDEEVSLPNGRGKDVKIAVIADGELALQAKNAGADLVITKDELEELGKNRKEAKKLANQYEFFVAQADMMPLVGRFMGPVLGPRKKMPKPVPATINPEPILNKLRDTVKVRIKDQPVVHTVVGTEDMDDEKLAENIEAVLQTIDRKLEKGRNQLKSMYVKTTMGPVVRVI
B2: Ribosomal protein L2 of M. thermautotrophicus (protein, UniProt O26113 1-241)
chain: MGKRLISQRRGRGTPTYRSASHRFKGKIKYRAYDSIESEGSLKGKVVDIMHDPGRTAPVARVKFENGEERLILAPEALMLNEEVECGVKARVKPGNSLPLSEIPEGTPIYNIENRPGDGGKLVRSSGTYASLITHDADKAVIELPSGELKALNPQCRATVGVVAGGGRREKPFLKAGKKYHALRAKGKKSVTVRGVAMNAVDHPHGGGNRQHPGRPTTVSRHAPPGRKVGSIAARRTGKRR
B3: Ribosomal protein L14 of M. thermautotrophicus (protein, UniProt O26121 1-132)
chain: MKAIASKVTRALPVGARLQCVDNTGAREVEIISVRGYKGVRRRLAAAGVGDMVVVSVKKGTVDMRREVLNAVIVRQKKEYRRPDGLRVKFEDNAAVIVSPEGVLKGSEIRGPVAKEAADRWPSVGSAASIIV

Protein sequences, listed by entry. Tags and fused reporters are not part of them. Residues count along the entry.
UniProt P02769, residues 25-607: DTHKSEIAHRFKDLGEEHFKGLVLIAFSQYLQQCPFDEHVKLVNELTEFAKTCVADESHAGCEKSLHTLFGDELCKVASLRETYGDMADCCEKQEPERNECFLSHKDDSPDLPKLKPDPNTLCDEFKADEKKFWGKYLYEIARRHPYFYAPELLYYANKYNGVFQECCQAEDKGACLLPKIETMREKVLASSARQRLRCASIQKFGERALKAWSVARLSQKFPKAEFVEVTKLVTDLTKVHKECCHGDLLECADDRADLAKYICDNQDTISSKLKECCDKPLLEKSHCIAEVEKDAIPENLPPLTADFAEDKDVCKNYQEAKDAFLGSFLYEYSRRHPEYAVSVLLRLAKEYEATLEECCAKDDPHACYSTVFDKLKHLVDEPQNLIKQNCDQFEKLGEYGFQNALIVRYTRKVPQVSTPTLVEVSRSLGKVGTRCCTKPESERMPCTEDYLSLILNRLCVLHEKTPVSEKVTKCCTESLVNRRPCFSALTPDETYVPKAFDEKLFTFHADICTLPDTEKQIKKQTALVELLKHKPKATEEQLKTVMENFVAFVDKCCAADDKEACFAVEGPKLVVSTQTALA

Results are given in words; binding and its absence hold for the method and conditions named. In cells and extracts the contact can be indirect. These calls come from enrichment with a bait or labelling near it, and not all partners need be listed. For part of these data: No binding means not detected with the bait.

The target in the first assay is BSA (UniProt P02769). The experiment in a line: affinity purification with mass spectrometry; 3 mg mthSBDS (control: 3 mg BSA) covalently coupled to a 1 ml NHS-activated column; M. thermautotrophicus lysate digested with RNase A and DNase I loaded; eluted with 100 mM glycine-HCl pH 2; SDS-PAGE, silver staining, bands excised, trypsin, MALDI-TOF/TOF, MASCOT; only the target purified.
For B1, the binding entry is “no binding”.
The same measure, in the same setting: as for B2, the entry is “no binding”; as for B3, “no binding”.

The next assay deals with T1, SBDS orthologue from Methanothermobacter thermautotrophicus (mthSBDS), recombinant, from plasmid pYCL02 (Methanothermobacter thermautotrophicus) (UniProt O26781).
T1 sequence: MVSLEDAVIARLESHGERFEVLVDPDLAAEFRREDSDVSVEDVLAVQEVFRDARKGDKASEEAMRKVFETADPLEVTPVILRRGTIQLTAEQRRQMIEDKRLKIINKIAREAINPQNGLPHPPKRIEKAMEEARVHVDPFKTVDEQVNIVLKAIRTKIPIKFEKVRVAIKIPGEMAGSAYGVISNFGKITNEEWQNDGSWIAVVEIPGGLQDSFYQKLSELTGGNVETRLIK
The description is as above.
B1: the binding result is “binds”.
Turning to B2, the binding result is recorded as “binds”.
B3: the binding result is “binds”.

For the origin of these results see article PMC2695463.
